Here are results for three substances from publication PMC8901487.

Amino acid sequences for entries named in this document (tags omitted).
UniProt Q9UKB1: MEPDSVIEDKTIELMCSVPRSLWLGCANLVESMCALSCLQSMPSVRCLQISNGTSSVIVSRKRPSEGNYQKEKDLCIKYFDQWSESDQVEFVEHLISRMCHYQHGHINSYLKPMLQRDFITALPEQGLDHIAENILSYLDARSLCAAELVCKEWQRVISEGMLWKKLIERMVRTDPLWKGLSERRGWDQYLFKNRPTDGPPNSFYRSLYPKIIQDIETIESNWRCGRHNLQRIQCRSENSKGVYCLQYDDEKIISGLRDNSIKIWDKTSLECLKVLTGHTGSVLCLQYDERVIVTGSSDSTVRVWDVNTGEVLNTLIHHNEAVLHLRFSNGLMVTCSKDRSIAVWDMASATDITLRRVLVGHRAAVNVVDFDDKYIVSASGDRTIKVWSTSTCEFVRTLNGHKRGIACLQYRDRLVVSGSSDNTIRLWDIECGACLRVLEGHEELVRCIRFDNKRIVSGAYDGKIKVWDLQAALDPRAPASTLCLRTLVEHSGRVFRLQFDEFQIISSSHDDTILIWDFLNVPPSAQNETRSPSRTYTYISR

These are yes or no findings as the source states them, for the method shown. Binding seen in cells or lysates may run through a third protein. Some results given as binding are weak or reduced against the parent protein; the word gives no strength. For some of these results: Sequences can lack the tags named with a protein.

Experiment [1] deals with HA-tagged β-TrCP (wild type, full length) (human (cDNA of 293T cells)) (UniProt Q9UKB1). The experiment is described as follows: co-IP; 293T cells co-transfected with full length FLAG-tagged TRIM67 and wild type or truncated HA-β-TrCP; lysates precipitated with anti-HA antibodies and protein A/G plus-gel, five washes; blots for FLAG and HA.
The target of experiment [2] is T1, FLAG-tagged TRIM67 S110/114A (human) (UniProt Q6ZTA4).
T1 sequence: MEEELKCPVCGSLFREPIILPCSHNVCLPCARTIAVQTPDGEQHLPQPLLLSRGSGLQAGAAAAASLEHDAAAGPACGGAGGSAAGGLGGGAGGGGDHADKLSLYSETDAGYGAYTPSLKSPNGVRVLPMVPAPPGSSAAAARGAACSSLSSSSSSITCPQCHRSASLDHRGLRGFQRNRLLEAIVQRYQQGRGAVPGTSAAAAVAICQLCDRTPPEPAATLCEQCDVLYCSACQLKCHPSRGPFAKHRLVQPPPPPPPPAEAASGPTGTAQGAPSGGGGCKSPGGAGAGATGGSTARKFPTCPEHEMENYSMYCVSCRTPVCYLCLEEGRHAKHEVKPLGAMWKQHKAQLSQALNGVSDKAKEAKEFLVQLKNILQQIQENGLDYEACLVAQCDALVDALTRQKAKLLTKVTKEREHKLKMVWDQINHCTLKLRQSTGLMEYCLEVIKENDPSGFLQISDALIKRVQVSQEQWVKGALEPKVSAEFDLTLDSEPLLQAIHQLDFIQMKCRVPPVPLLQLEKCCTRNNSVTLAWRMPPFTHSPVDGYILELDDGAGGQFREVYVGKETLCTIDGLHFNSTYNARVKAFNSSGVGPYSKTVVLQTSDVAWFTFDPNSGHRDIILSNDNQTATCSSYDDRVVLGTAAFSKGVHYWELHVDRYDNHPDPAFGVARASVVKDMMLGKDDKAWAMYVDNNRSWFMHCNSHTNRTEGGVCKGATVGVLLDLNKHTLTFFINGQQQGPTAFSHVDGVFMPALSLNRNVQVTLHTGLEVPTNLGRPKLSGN
The experiment is described as follows: co-IP; 293T cells transfected with FLAG-tagged TRIM67 (wild type or mutant), alone or with HA-β-TrCP; lysates precipitated with anti-FLAG affinity gel; blots for FLAG and β-TrCP or HA; for the mutants cells with or without TNFα for 30 min.

Experiment [3] deals with FLAG-tagged TRIM67 (wild type, full length) (human) (UniProt Q6ZTA4). Described as above.

Take “FLAG-tagged TRIM67 (wild type, full length) (from UniProt Q6ZTA4 1-783)”: in experiment [1], the binding entry was “binds”.
For “endogenous β-TrCP (from UniProt Q9UKB1 1-542)”, the figures for the binding entry in experiment [2] and in experiment [3] were “no binding” and “binds”, respectively.
Consider “HA-tagged β-TrCP (wild type, full length) (from UniProt Q9UKB1 1-542)”, for which, in experiment [3], the binding result is reported as “binds”.
